According to patent US20230203052A1, “ACYCLIC CUCURBITURILS, METHODS OF MAKING SAME, AND USES THEREOF” (University of Maryland, College Park, priority 2020, published 2023):
For at least one compound, name, drawing or mass did not settle the structure.

Key:
[1] = ITC binding of guests to host 1 (direct or competitive titration); conditions: 20 mM sodium phosphate buffered H2O, pH 7.4, 25° C.; direct or competitive ITC per footnote
[2] = taken from the literature; cited from earlier work

Question: Which results are given for `CC(=O)OCC[N+](C)(C)C` [guest 23, acetylcholine]?
Answer: Ka of host·guest complex of 1 [1]: 231000 M⁻¹; Ka of host·guest complex of M1 [2]: 24000 M⁻¹
